Source: US20220023273A1, “METHODS FOR TREATING SYMPTOMS AND DISORDERS ASSOCIATED WITH LYSOSOMAL STORAGE DISEASES” (GENZYME CORPORATION, priority 2019, published 2022)
At least one read-out could not be matched to a standard name with certainty.

Test: Phase 1 Study 2: ascending repeated-dose pharmacokinetics
Type: in vivo, human
Conditions: healthy adults, 5, 10, or 20 mg once daily, Days 1 and 14

SMILES: CC(C)(NC(=O)O[C@@H]1CN2CCC1CC2)c1csc(-c2ccc(F)cc2)n1 [Compound 2, (S)-quinuclidin-3-yl (2-(2-(4-fluorophenyl)thiazol-4-yl)propan-2-yl)carbamate]
- median time of plasma Cmax: 2 to 5 h
